For at least one compound, name, drawing or mass did not settle the structure. Where a SMILES comes first, the peptide text is derived from it. Bridges are numbered along the chain shown (N, C = ends). Where no end group is shown, it is not given here.
What was measured:
Escherichia coli = assay: antimicrobial activity assay (viable bacteria, CFU/ml); format: cell-based; details: synthetic peptide standard curve; 37° C. for 1.5 hr
Staphylococcus carnosus = assay: as above; format: cell-based; details: synthetic peptide standard curve; 37° C. for 1.5 hr
Experimental: The antimicrobial activity assay employed Escherichia coli and Staphylococcus carnosus and is a modification of the protocol described by Porter and coworkers (Porter, E. M., et al., Infect Immun, 1997. 65(6): p. 2396-401). Briefly, gram-positive or gram-negative bacteria are grown overnight. The following day the test organisms are subcultured for 2.5 hr and working dilutions of 10^4 bacteria/ml for Escherichia coli or 10^5 bacteria/ml of Staphylococcus carnosus in 10 mM sodium phosphate (pH 7.4)-1% TSB are created. All the reactions mix 50 μl of experimental reagent (lysis, supernatants or purified protein) with 50 μl of bacterial suspension. These reactions are then incubated at 37° C. for 1.5 hr. The reactions are diluted 100-fold in 10 mM sodium phosphate (pH 7.4)-1% TSB and plated on TSB plates using a spiral plater (Spiral Biotech, Norwood, Mass.). The plates are then incubated for 12 to 16 hr at 37° C. Colonies on these plates are counted and the number of viable bacteria is determined and expressed as colony forming units per milliliter (CFU/ml).
This example describes the development of an assay to detect LL-37 antimicrobial activity. […] A standard curve for the antimicrobial activity of LL-37 was determined for gram-positive bacteria, S. carnosus using this synthetic peptide.

Compound	concentration necessary to kill 50% (LC50) of E. coli (Escherichia coli) [µg/mL]	concentration necessary to kill 50% (LC50) of S. carnosus (Staphylococcus carnosus) [µg/mL]
GIINTLQKYYCRVRGGRCAVLSCLPKEEQIGKCSTRGRKCCRRKK (disulfide 11-40, 18-33, 23-41 (inferred)) [hBD-3]	2.4	0.19
CC[C@H](C)[C@@H]1NC(=O)[C@H](CCCCN)NC(=O)[C@H]([C@@H](C)O)NC(=O)[C@H](Cc2ccccc2)NC(=O)[C@H]([C@@H](C)CC)NC(=O)[C@@H]2CCCN2C(=O)[C@@H]2CSSC[C@@H](C(=O)N[C@@H](CCCCN)C(=O)O)NC(=O)[C@@H]3CSSC[C@H](NC(=O)[C@H](CC(N)=O)NC(=O)[C@H](Cc4ccc(O)cc4)NC(=O)[C@H](Cc4c[nH]cn4)NC(=O)[C@@H](N)CC(=O)O)C(=O)N[C@@H](C(C)C)C(=O)N[C@@H](CO)C(=O)N[C@@H](CO)C(=O)NCC(=O)NCC(=O)N[C@@H](CCC(N)=O)C(=O)N[C@@H](CSSC[C@H](NC(=O)[C@H]([C@@H](C)O)NC(=O)CNC(=O)[C@H](CCC(N)=O)NC1=O)C(=O)N[C@@H](Cc1ccc(O)cc1)C(=O)N[C@@H](CCCNC(=N)N)C(=O)NCC(=O)N[C@@H](CCCCN)C(=O)N[C@@H](C)C(=O)N[C@@H](CCCCN)C(=O)N3)C(=O)N[C@@H](CC(C)C)C(=O)N[C@@H](Cc1ccc(O)cc1)C(=O)N[C@@H](CO)C(=O)N[C@@H](C)C(=O)N2 [hBD-1] (H-DHYNCVSSGGQCLYSACPIFTKIQGTCYRGKAKCCK-OH; disulfide 5-34, 12-27, 17-35 (inferred); N-terminus and C-terminus assumed)	102	–
